# Results reported in PubChem BioAssay AID493014 (National Center for Advancing Translational Sciences (NCATS), 2011).
# This is one part of the list. The main result of the screen is listed elsewhere. These columns were measured beside it and carry no call. Most of these compounds were active or inconclusive in the main read-out, so they are no random draw. Words in brackets tell the shape of the fitted curve; partial curves, single points and poor fits give uncertain potencies.
# Assay: qHTS Assay to Find Inhibitors of Chronic Active B-Cell Receptor Signaling
# Conditions: ABC-DLBCL IkBa-CBG/CBR reporter, luminescence ratio (green luciferase fused to IkBa over red control in TMD8 lymphoma cells), 4 h
# Outline: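 Cell line TMD8 (human ABC DLBCL), stably expressing tet-inducible CBG68-IkBa fusion and CBR; IMDM/0.5% FBS; cpd up to 46 uM; dox induction, 4 h, 37C/5% CO2; dual luminescence; green/red ratio; MG132 control.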
# [1] = measured here: CBR red luminescence, cell number
# [2] = measured here: IkBa-CBG green luminescence
Structure (SMILES),AC50 [1],AC50 [2]
CCOC(=O)/C=C/c1nc(C(=O)OCC)c(C)c(=O)[nH]1,"25.1 µM [falling, single point]",–
N#CC(C#N)=C(Nc1ccc(F)cc1)SCc1cccc(Br)c1,"6.51 µM [falling, full curve, poor fit]",–
O=C(CCC(=O)Nc1ccc(Br)cc1)N/N=C/c1ccc(F)cc1,"6.31 µM [rising, partial curve, poor fit]",–
CC(C)C[C@H](NC(=O)[C@@H]1Cc2ccccc2CN1C(=O)OC(C)(C)C)C(=O)NCC1CCC(C(=O)O)CC1 (some centres not stated),"17.8 µM [falling, single point]",–
COc1ccc(C2C(C(=O)N3CCCC3)CC(=O)N2c2ccc(OC)cc2)cc1 (configuration not stated),"5.17 µM [rising, partial curve, poor fit]",–
CO/N=C/c1c(-c2ccccc2)nn(C)c1Cl,"2.82 µM [falling, partial curve, poor fit]",–
CC(C)NC(=O)NC(=O)COC(=O)CCCSc1nc2ccccc2s1,"6.51 µM [falling, partial curve, poor fit]","0.082 µM [rising, full curve, poor fit]"
COc1ccc(Cl)cc1NC(=S)N1CCN(c2ncccn2)CC1,"22.4 µM [rising, partial curve, poor fit]",–
COc1ccc(-n2cc(-c3ccccc3)[nH]c2=S)cc1,"4.11 µM [rising, single point]",–
O=C(CSc1ncccc1C(=O)Oc1ccccc1Cl)Nc1ccc(C(F)(F)F)cc1Cl,"0.708 µM [rising, full curve]",–
CC(=O)c1c(C)[nH]c(C)c1C(C)=O,"35.5 µM [falling, single point]",–
C=CCn1c(SCC(=O)NCC2CCCO2)nc2sc(C)c(C)c2c1=O (configuration not stated),"5.62 µM [falling, single point]",–
N#C/C(=C\c1ccccc1C(=O)O)c1nc2ccccc2[nH]1,"12.6 µM [falling, single point]",–
CCN1CCN(S(=O)(=O)c2ccc(Br)s2)CC1,"3.66 µM [rising, partial curve, poor fit]",–
Cc1cccc([C@@H]2[C@@H]3C(=O)N(Cc4ccccc4)C(=O)[C@@H]3[C@]3(Cc4ccc(Cl)cc4)C(=O)N(c4ccc(Br)cc4)C(=O)N23)c1,"2.24 µM [falling, full curve, poor fit]",–
Cc1cccc(OCC(=O)NCc2cc(C)nc3ccccc23)c1,"3.55 µM [falling, full curve, poor fit]",–
O=C(CN1CCSCC1)N/N=C/c1ccc(F)cc1F,"14.6 µM [rising, partial curve, poor fit]",–
COc1ccc(C2NCCc3c2[nH]c2ccccc32)cc1CSc1nc2ccccc2s1 (configuration not stated),"23.1 µM [falling, single point]","20.6 µM [rising, single point]"
Cc1ccc(S(=O)(=O)N(CC(=O)N2CCc3ccccc3C2)c2cccc(Cl)c2)cc1,"12.6 µM [falling, partial curve, poor fit]",–
COc1ccc(-c2noc(CCc3ccccc3)n2)cc1,"0.891 µM [rising, full curve]",–
COCCSc1nnc(NC(=O)c2ccc([N+](=O)[O-])cc2)s1,"31.6 µM [rising, partial curve, poor fit]",–
Cc1cc(SC#N)cc(C)c1NC(=O)CCl,"13 µM [falling, single point]",–

Structure (SMILES),AC50 [1],AC50 [2]
Cc1cc(NC(=O)CCC(=O)N(Cc2ccccc2)C(C(=O)NC2CCCC2)c2ccc(C)o2)no1 (configuration not stated),"5.01 µM [rising, partial curve, poor fit]",–
C=C(C)[C@@H]1CC=C(CN2CCC(N3CCC(C(=O)N4CCCC4)CC3)CC2)CC1,"22.4 µM [falling, single point]",–
CCn1c(=O)n(CC)c2cc(S(N)(=O)=O)ccc21,"29.1 µM [rising, single point]",–
Cc1cc(=S)nc(-c2ccccn2)[nH]1,"35.5 µM [rising, single point]",–
CCC(C)NCCOCCOc1ccc(Cl)c(C)c1C (configuration not stated),"18.4 µM [falling, single point]",–
O/N=C/c1ccc(OCC(O)COc2ccc(/C=N/O)cc2)cc1,"0.13 µM [falling, full curve, poor fit]",–
CCOC(=O)c1c(CN2CCN(CCO)CC2)n(-c2ccccc2)c2cc(Br)c(O)cc12,"0.112 µM [falling, full curve, poor fit]",–
COc1ccc(-c2noc(CCC(=O)Nc3cccc(C)c3)n2)cc1,"11.6 µM [rising, partial curve, poor fit]",–
O=C(N/N=C/c1ccc([N+](=O)[O-])cc1)c1cnccn1,"7.08 µM [falling, full curve, poor fit]",–
O=C(CN1CCCCC1)N/N=C/c1cccc(Cl)c1,"7.94 µM [rising, partial curve, poor fit]",–
O=C(CSc1nc2[nH]ncc2c(=O)n1-c1ccc(Cl)c(Cl)c1)NCc1ccccc1Cl,"15.8 µM [falling, partial curve]","14.1 µM [rising, partial curve, poor fit]"
COc1ccccc1C(=O)NCCC(=O)NCc1cccs1,"4.11 µM [rising, single point]",–
CC(C)(C)c1csc(NC(=O)c2ccccc2O)n1,"1.78 µM [falling, partial curve]",–
COC(=O)c1ccc([C@H]2CC(=O)O2)cc1,"15.8 µM [falling, partial curve, poor fit]",–
O=C(c1cc(COc2c(F)cccc2F)on1)N1CCC(c2ccccc2F)C1 (configuration not stated),"2 µM [rising, partial curve, poor fit]",–
CCCCOC(=S)NC(=O)c1sc2ccccc2c1Cl,"11.2 µM [rising, partial curve]",–
Cc1cc(O)cc(O)c1C(=O)Cc1cnn(-c2ccccc2)c1,"3.66 µM [rising, single point]",–
CCCS(=O)(=O)c1cnc(C2COc3ccccc3O2)nc1N (configuration not stated),"12.6 µM [falling, single point]",–
c1ccc(Nc2nc3ccccc3n3nnnc23)cc1,"0.631 µM [falling, full curve]",–
CCCC(=O)Nc1cccc(Oc2ccc3c(c2)C(=O)NC3=O)c1,"17.8 µM [falling, single point]",–
O=C(COc1ccccc1[N+](=O)[O-])N/N=C/c1cccs1,"25.9 µM [rising, partial curve, poor fit]",–
O=C(Cc1ccsc1)OCC(=O)c1ccccc1,"4.11 µM [rising, partial curve]",–

Structure (SMILES),AC50 [1],AC50 [2]
Cc1ccc(S(=O)(=O)NC(=O)c2cc(C)n(-c3ccc(N(C)C)cc3)c2C)cc1,"1.03 µM [rising, full curve, poor fit]",–
Cn1c(=O)c2c(ncn2CC(COCc2ccccc2Cl)OCc2ccccc2Cl)n(C)c1=O (configuration not stated),"20 µM [falling, partial curve, poor fit]",–
O=C(Cc1c[nH]c2ccccc12)NCc1ccc2c(c1)OCO2,"12.6 µM [falling, partial curve]",–
O=C(Nc1cccc(F)c1)NC1(C(=O)N2CCOCC2)CCCCC1,"11.2 µM [rising, partial curve]",–
CCOc1ccc(-c2nnc(-c3cccs3)o2)cc1,"1.58 µM [rising, full curve]",–
c1ccc(CN2CCN(c3nc(-c4ccccc4)nc(-n4ccnc4)n3)CC2)cc1,"22.4 µM [falling, single point]",–
Cc1nn(-c2ccccc2)c(CC(C)(C)C(=O)O)c1C(=O)O,"29.1 µM [rising, single point]",–
CCOc1ccc(N(Cc2ccccc2F)C2=NC3CS(=O)(=O)CC3S2)cc1 (configuration not stated),"12.6 µM [falling, single point]",–
CC(=O)O[C@H]1[C@H](O)[C@H](Oc2c(O)c(C)c3c4c2[C@@H](C)CC[C@@H]4[C@@H](C)C[C@H]3C=C(C)C)O[C@@H](C)[C@H]1O,"29.1 µM [rising, single point]",–
COc1ccc(/C=N/NC(=O)c2ccco2)cc1COc1ccc(F)cc1,"10 µM [rising, partial curve, poor fit]",–
COC(Cn1cc(C)c(=O)[nH]c1=O)OC,"8.91 µM [rising, partial curve, poor fit]",–
COC(=O)c1oc2nc(C)cc(C)c2c1N,"23.1 µM [falling, partial curve, poor fit]",–
NC1=NC(=Nc2ccccc2)c2ccccc21,"5.8 µM [rising, full curve, poor fit]",–
CN(C)c1ccc(-n2cccc2/C=N/n2cnnc2)cc1,"32.6 µM [falling, partial curve, poor fit]",–
CCOc1cccc2sc(N(CCCN(C)C)C(=O)c3ccc(S(=O)(=O)N(CC)Cc4ccccc4)cc3)nc12,"15.8 µM [falling, single point]",–
Cc1ccccc1C(=O)N1CCC(C(N)=O)CC1,"2.91 µM [rising, single point]",–
Cc1ccc(OC(=O)C(F)(F)F)c2c1NCCC2,"1.64 µM [rising, partial curve, poor fit]",–
CCCCCCCCn1ccc(=N)cc1,"22.4 µM [falling, single point]",–
CCN1C(=O)c2cccc3c(S(=O)(=O)Nc4ncccc4C)ccc1c23,–,"22.4 µM [falling, partial curve, poor fit]"
CCCOc1ccc(C(=O)CCNc2cccc(Cl)c2)cc1,"4.47 µM [rising, single point]",–

# Part of the list above, with tabs.
Structure (SMILES)	AC50 [1]	AC50 [2]
Cc1cc(SC#N)cc(C)c1NC(=O)CCl	13 µM [falling, single point]	–
CCOC(=O)c1c(CN2CCN(CCO)CC2)n(-c2ccccc2)c2cc(Br)c(O)cc12	0.112 µM [falling, full curve, poor fit]	–
COc1ccccc1C(=O)NCCC(=O)NCc1cccs1	4.11 µM [rising, single point]	–
CCCOc1ccc(C(=O)CCNc2cccc(Cl)c2)cc1	4.47 µM [rising, single point]	–
